A short description of this test: qHTS Assay for Modulators of Lamin A Splicing. The settings on record: HeLa LMNA splicing GFP/RFP minigene ratio, 48 h. The gist of the method:
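Read-out is the ratio of GFP to DsRed2 object intensity, acquired by 488 nm laser-scanning cytometry on HeLa lamin A-EGFP minigene reporter cells. Compound incubation 48 hrs at 37 °C in Opti-MEM with 2% FBS; DMSO 0.5% final.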
(qHTS replaces the single test concentration by a dilution series.)

Where [1] appears, read: measured here: GFP splicing reporter channel.
Setting [2] is: measured here: RFP viability control channel.

Here are results for 55 compounds from PubChem BioAssay AID1487 (National Center for Advancing Translational Sciences (NCATS), 2009).

The list shows a part of the results. These are further read-outs of the screen, such as a control signal, another cell line or another target. No call is given for them. Compounds called inactive in the main read-out are mostly missing here. Potencies come from curve fits of mixed quality, noted in brackets.

Turning to `Cc1cc(C)c(NC(=O)Cn2c(=O)n(-c3ccc(CC(=O)NCC4CCCO4)cc3)c(=O)c3ccccc32)c(C)c1` (stereo not given), the half-maximal activity concentration (AC50) is 31.6 µM [falling, single point] under setting [1] and 35.5 µM [falling, single point] under setting [2]. Take `Cc1cc(CC(C)C)n(-c2nc3ccccc3c(=O)n2OCC(N)=O)n1`: the half-maximal activity concentration (AC50) under setting [2] was 35.5 µM [rising, single point]. `Cc1ccc(Cl)cc1N1CCN(Cc2nc3c(c(=O)[nH]c(=O)n3C)n2Cc2ccccc2F)CC1`: the concentration at half-maximal activity (AC50) runs as follows: under setting [1], 35.5 µM [falling, single point]; under setting [2], 22.4 µM [falling, single point]. For `CC(C)(C)c1ccc(C(=O)NNC(=S)NCC2CCCO2)cc1` (stereo not given), the AC50 reads like this: under setting [1], 15.8 µM [rising, single point]; under setting [2], 22.4 µM [rising, single point]. Consider `Clc1cccc(-c2ccc(/C=N/n3cnnc3)o2)c1Cl`, for which the AC50 under setting [1] was 3.16 µM [falling, full curve] and the AC50 under setting [2] is 3.98 µM [falling, full curve].

For `CN1C(=O)/C(=C/c2cn(CC(=O)N3CCCCC3)c3ccccc23)c2ccccc21`, the AC50 was 14.1 µM [rising, single point] under setting [1] and 15.8 µM [rising, single point] under setting [2]. Take `COC(=O)c1ccc(CSc2nc3c([nH]c4ccccc43)c(=O)n2-c2ccc(Cl)cc2)o1`: the AC50 under setting [2] was 11.2 µM [falling, partial curve, poor fit]. Take `CN(C)c1ccc(C(CNS(=O)(=O)c2ccc(F)cc2)c2c[nH]c3ccccc23)cc1` (stereo not given): the half-maximal activity concentration (AC50) by setting is: under setting [1], 35.5 µM [rising, single point]; under setting [2], 35.5 µM [rising, single point]. In the case of `CCc1nnc(N/N=C/c2c(C)[nH]c3ccccc23)n1N`, the AC50 under setting [1] was 0.112 µM [rising, full curve, poor fit]. In the case of `CC1=NN(/C(=N\c2nnc(C)s2)Nc2ccc(C(C)(C)C)cc2)[C@H](c2ccc(C)cc2)S1`, the AC50 under setting [2] was 35.5 µM [rising, single point]. Turning to `CC(C)(C)C(=O)/C(=C\c1ccc([N+](=O)[O-])cc1)n1cncn1`, the half-maximal activity concentration (AC50) is 5.62 µM [falling, single point] under setting [1] and 3.55 µM [rising, partial curve] under setting [2]. Consider `COc1cccc(C(C)N(C)Cc2nc(-c3ccoc3)oc2C)c1` (stereo not given), for which the AC50 under setting [2] is 4.47 µM [falling, partial curve, poor fit].

On to `Cc1ccc(-c2nc(C)sc2CC(=O)Nc2nnc(C)s2)cc1`, for which the concentration at half-maximal activity (AC50) under setting [1] was 20 µM [falling, partial curve, poor fit]. Regarding `CC1Cc2ccccc2N1S(=O)(=O)c1cccc(C(=O)c2nccn2C)c1` (stereo not given), under setting [2], the half-maximal activity concentration (AC50) was 35.5 µM [rising, single point]. The same measure, in the same setting: as for `CC(=O)c1ccc(CCCCCCCCCC(=O)O)s1`, the figure is 5.62 µM [falling, single point]; as for `CCCOc1ccc(C(O)(CCC)CCN2CCCCC2)cc1` (stereo not given), 11.2 µM [rising, partial curve, poor fit]. `Cc1cccc(C)c1OCC(C)N` (stereo not given): the AC50 reads like this: under setting [1], 0.00794 µM [falling, full curve, poor fit]; under setting [2], 0.0112 µM [falling, full curve, poor fit]. Consider `CC(=O)N(C(C)=O)N1C(=O)c2cccc3c(N4CCOCC4)ccc(c23)C1=O`, for which the AC50 under setting [2] was 15.8 µM [rising, single point]. On the same count and under the same terms, then `c1cncc(-c2nc(-c3ccc4c(c3)OCO4)cs2)c1`, with 0.178 µM [falling, partial curve]. On to `CCc1ccc(CNc2ncnc3c2nc2n3CCCC2)cc1`, for which the AC50 under setting [1] was 10 µM [falling, partial curve]. Take `O=C(COC(=O)/C=C/c1ccc(OC(F)F)cc1)NCc1cccs1`: under setting [2], the half-maximal activity concentration (AC50) was 6.31 µM [falling, single point]. Regarding `COc1ccc(-c2nn(-c3ccccc3)cc2/C=N/Nc2ccc3ccccc3n2)cc1OC`, the concentration at half-maximal activity (AC50) is, setting by setting: under setting [1], 31.6 µM [rising, single point]; under setting [2], 35.5 µM [rising, single point]. For the compound `Clc1ccccc1SCc1nc2ccccc2[nH]1`, the half-maximal activity concentration (AC50) under setting [2] is 12.6 µM [rising, partial curve, poor fit]. On to `CC(C)CCNC(=S)Nc1ccc2nc3n(c(=O)c2c1)CCCCC3`, for which, under setting [2], the AC50 was 12.6 µM [rising, single point]. Same read-out and setting: as for `Cc1ccc(OCc2ccc(C(=O)O)o2)c([N+](=O)[O-])c1`, the figure is 0.112 µM [rising, full curve].

With `COc1ccc(C2=NO[C@@H]3[C@@H]4C[C@@H]([C@H]5C(=O)N(C)C(=O)[C@@H]45)[C@H]23)cc1`, the AC50 under setting [1] is 35.5 µM [rising, single point].

For `CCOc1cc(Br)ccc1S(=O)(=O)N1CCC(C(N)=O)CC1`, the AC50 under setting [1] is 17.8 µM [rising, partial curve, poor fit] and the AC50 under setting [2] was 0.0562 µM [rising, partial curve, poor fit].

`O=C(c1ccc(CS(=O)(=O)Cc2ccc(Cl)cc2)o1)N1CCCC1`: the AC50 under setting [2] was 12.6 µM [rising, single point]. For `C=CCNC(=O)c1onc(CSc2ccc(C)c(C)c2)c1C(=O)O`, under setting [1], the AC50 was 2.51 µM [falling, single point].

Take `COc1ccc(Cc2nnc(-c3cccc(C)c3)o2)cc1OC`: the AC50 under setting [2] was 15.8 µM [rising, single point]. As for `c1ccc2c(c1)OCC(c1csc3ncnc(N4CCCC4)c13)O2` (stereo not given), the AC50 is 35.5 µM [rising, single point] under setting [1] and 35.5 µM [rising, single point] under setting [2]. In the case of `O=C(Nc1ccc(OC(F)(F)F)cc1)C1CCCN(S(=O)(=O)c2cccnc2)C1` (stereo not given), the AC50 is, setting by setting: under setting [1], 11.2 µM [rising, single point]; under setting [2], 20 µM [rising, partial curve]. With `CCOC(=O)NC1(Nc2ccc(C)cc2)Oc2ccccc2O1`, under setting [2], the half-maximal activity concentration (AC50) is 10 µM [rising, partial curve]. Regarding `Cc1ccc(S(=O)(=O)Nc2ccccc2-c2ccccc2NS(=O)(=O)c2ccc(C)cc2)cc1`, the AC50 was 35.5 µM [falling, single point] under setting [1] and 35.5 µM [falling, single point] under setting [2]. Take `O=C(CN1C(=O)NC(c2ccccc2)(c2ccccc2)C1=O)Nc1ccc2[nH]c(=O)[nH]c2c1`: the half-maximal activity concentration (AC50) is, setting by setting: under setting [1], 0.355 µM [rising, full curve]; under setting [2], 0.251 µM [rising, full curve, poor fit]. For the compound `COc1ccc(CCNC(=O)CSc2cn(Cc3ccccc3)c3ccccc23)cc1OC`, the AC50 under setting [2] is 25.1 µM [rising, single point]. Still for that read-out and setting: as for `COc1ccc(NS(=O)(=O)c2cc(NC(=O)CCSc3ccccc3)ccc2OC)cc1`, the figure is 1.41 µM [rising, partial curve, poor fit]; as for `CC(=O)N1Cc2ccccc2C(C)CC12CCCC2` (stereo not given), 11.2 µM [rising, partial curve, poor fit]; as for `COc1ccc(OC)c(CCNC(=O)CCCn2c(=O)c3cccn3c3ccccc32)c1`, 4.47 µM [rising, partial curve]. For `O=C(CNC(=O)c1cccc(F)c1)N/N=C/c1cc(Br)ccc1OC(=O)/C=C/c1ccco1`, the half-maximal activity concentration (AC50) reads like this: under setting [1], 12.6 µM [rising, partial curve]; under setting [2], 15.8 µM [rising, partial curve]. Consider `CCOC(=O)c1sc(NC(=O)CSc2nnc(C)s2)c(C(=O)OCC)c1C`, for which, under setting [2], the AC50 was 22.4 µM [rising, single point]. Turning to `Cc1ccc2c(c1)-c1cc(C)nn1C(c1sccc1C)N2` (stereo not given), the AC50 is, setting by setting: under setting [1], 14.1 µM [rising, single point]; under setting [2], 11.2 µM [rising, single point]. For `O=C(COC(=O)C1CC2C=CC1C2)Nc1cccc(S(=O)(=O)N2CCCCCC2)c1` (stereo not given), the AC50 is 11.2 µM [rising, single point] under setting [1] and 35.5 µM [rising, single point] under setting [2].

With `CC(C)Oc1ccc(CNC(=O)CCCN2C(=O)c3cccnc3Oc3ccc(Cl)cc32)cc1`, under setting [1], the AC50 was 35.5 µM [falling, partial curve, poor fit]. Take `O=C(CN1CCC(NC(=O)Cc2ccccc2)CC1)Nc1ccccc1Br`: the AC50 was 35.5 µM [rising, single point] under setting [1] and 14.1 µM [rising, partial curve] under setting [2].

Turning to `Cc1ccc(/C=C2/NC(=O)N(Cc3ccc(Br)cc3)C2=O)o1`, the AC50 was 15.8 µM [rising, single point] under setting [1] and 12.6 µM [rising, single point] under setting [2].

As to `CCCCn1c2ccccc2c2nnc(SCC(=O)NC3=NN=C(c4ccccc4)CS3)nc21`, the AC50 under setting [2] was 35.5 µM [rising, single point]. For the compound `O=C(NCc1ccccc1)[C@H]1C[C@@H]1[C@H](NP(=O)(c1ccccc1)c1ccccc1)c1ccccc1`, the AC50 is 0.01 µM [falling, full curve, poor fit] under setting [1] and 0.01 µM [falling, full curve, poor fit] under setting [2].

For `S=C1NCCNC(=S)NCCOCCOCCOCCN1`, the AC50 under setting [2] is 0.0224 µM [rising, full curve, poor fit].

As for `CC(=O)Oc1c(C)cc(OCC(O)CNC(C)C)c(C)c1C` (stereo not given), the AC50 under setting [1] was 11.2 µM [falling, partial curve, poor fit]. Same read-out and setting: then `CCOC(=O)CSc1ncnc2c1nnn2-c1ccc(F)cc1`, with 1.58 µM [falling, full curve]. Consider `CCC1(CC)C(=O)NC(=O)NC1=Nc1ccccc1`, for which the AC50 under setting [2] was 14.1 µM [falling, partial curve, poor fit]. Still for that read-out and setting: then `Oc1c(C=Nc2cccc3cccnc23)sc2ccccc12`, with 15.8 µM [rising, single point]. Still for that read-out and setting: as for `COc1cccc(NC(=O)c2ccccc2-c2nc(-c3cccc(C)c3)no2)c1`, the figure is 15.8 µM [rising, partial curve]; as for `O=C(Nc1ccc(N2CCN(C(=O)c3ccco3)CC2)c(Cl)c1)c1c(F)c(F)c(F)c(F)c1F`, 31.6 µM [rising, single point].

By AC50 is commonly meant the concentration giving half of the maximal activity seen.
